Assay results published in US20070191491A1, “[…] OF STORED GOODS, ENCLOSURES, […] WORKS OF ART, WITH SULPHUR COMPOUNDS” (Arkema France, priority 2002, published 2007).

Columns and labels:
[1] = DMDS concentration in chamber atmosphere after nebulization onto wheat grains (SPME-GC-MS); details: 90 mg DMDS as 30% solution in Radia 7961, nebulized on 1 kg wheat, 20° C.
[2] = Spontaneous diffusion of DMDS in a silo of wheat grains (CT by gas chromatography); details: pure DMDS 30 gm^−3 deposited at surface, 20° C.; for CT at point C: lower end of silo (−72 cm); for CT at point A: surface of grains (0 cm); for CT at point B: −36 cm below grain level

CSSC [DMDS, dimethyl disulphide]
time of treatment to reach useful product CT of 100 ghm^−3 [1]: 30 h | concentration of DMDS in the atmosphere of the chamber ([1]; reached after first 5 hours, then constant during 5 days): 3 gm^−3 | CT at point C ([2]; 1 day): 4 ghm^−3 | CT at point A ([2]; 1 day): 542 ghm^−3 | CT at point B ([2]; 1 day): 46 ghm^−3 | CT at point C ([2]; 2 days): 14 ghm^−3 | CT at point A ([2]; 2 days): 630 ghm^−3 | CT at point B ([2]; 2 days): 80 ghm^−3 | CT at point C ([2]; 3 days): 62 ghm^−3 | CT at point A ([2]; 3 days): 821 ghm^−3 | CT at point B ([2]; 3 days): 180 ghm^−3
